Assay [1] addresses NSs of Toscana virus fused to the Gal4 DNA-binding domain (pGBKT7-NSsTOS) (Toscana virus) (UniProt P21699). Briefly: two-hybrid.
For assay [2], the target named is GST-NSs (Rift Valley fever virus) (UniProt P21698). Briefly: pull-down; […]; 50 mM Tris HCl pH 7.5, 100 mM NaCl, […]; only the target purified.

Protein sequences, listed by entry. Tags and fused reporters are not part of them.
UniProt P21699: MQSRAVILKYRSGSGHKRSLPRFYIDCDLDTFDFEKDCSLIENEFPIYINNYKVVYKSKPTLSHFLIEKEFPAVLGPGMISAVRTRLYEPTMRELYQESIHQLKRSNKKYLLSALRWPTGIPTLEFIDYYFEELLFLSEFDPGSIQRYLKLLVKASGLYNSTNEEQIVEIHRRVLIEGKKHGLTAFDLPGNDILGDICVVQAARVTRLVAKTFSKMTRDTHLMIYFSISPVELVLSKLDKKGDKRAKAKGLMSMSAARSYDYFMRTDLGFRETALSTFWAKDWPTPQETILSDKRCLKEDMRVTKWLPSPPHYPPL
UniProt P21698: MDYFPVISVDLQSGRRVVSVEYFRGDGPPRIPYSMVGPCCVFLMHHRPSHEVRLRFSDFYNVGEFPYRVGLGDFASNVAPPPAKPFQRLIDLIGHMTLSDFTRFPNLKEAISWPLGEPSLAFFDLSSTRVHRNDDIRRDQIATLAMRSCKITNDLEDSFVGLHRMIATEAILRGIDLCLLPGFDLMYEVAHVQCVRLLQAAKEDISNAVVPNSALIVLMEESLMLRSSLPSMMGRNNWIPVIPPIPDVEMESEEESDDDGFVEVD

Results are given in words; binding and its absence hold for the method and conditions named. For some assays here: In cells and extracts the contact can be indirect. Some entries that bind do so weakly or less than the wild type. For some assays here: Sequences can lack the tags named with a protein.

Consider “SAP30 amino acids 1-152 fused to the Gal4 transactivating domain (pACT2-SAP30_(1–152)) (from UniProt O88574 1-152) (domain or fragment)”, for which, in assay [1], the binding result was “no binding”.

B1: full length HA tagged-SAP30 protein (pCi-HA-SAP30) (protein, UniProt O88574 1-220)
chain: MNGFTPEEMSRGGDAAAAVAAVVAAAAAAASAGNGNAAGGGAEVPGAGAVSASGPPGAAGPGPGQLCCLREDGERCGRAAGNASFSKRIQKSISQKKVKIELDKSARHLYICDYHKNLIQSVRNRRKRKGSDDDGGDSPVQDIDTPEVDLYQLQVNTLRRYKRHFKLPTRPGLNKAQLVEIVGCHFKSIPVNEKDTLTCFIYSVRNDKNKSDLKADSGVH
As to B1, the binding result in assay [2] was “binds”.

For the origin of these results see publication PMC2323286.
